In paper doi:10.1101/2021.10.01.462752:
No constants are given. Whether binding was seen depends on the method and setting. In cells and extracts the contact can be indirect. Binding can be weak; no strength is given. Where a sequence is shown, tags or fusion partners need not be part of it.

Target: FLAG-tagged JADE1S (not stated (previously described JADE1S cDNA; murine Jade1S cDNA was also cloned))
Experiment: co-IP

B1: V5-tagged NPHP4 (protein, UniProt O75161 1-1426)
chain: MNDWHRIFTQNVLVPPHPQRARQPWKESTAFQCVLKWLDGPVIRQGVLEVLSEVECHLRVSFFDVTYRHFFGRTWKTTVKPTKRPPSRIVFNEPLYFHTSLNHPHIVAVVEVVAEGKKRDGSLQTLSCGFGILRIFSNQPDSPISASQDKRLRLYHGTPRALLHPLLQDPAEQNRHMTLIENCSLQYTLKPHPALEPAFHLLPENLLVSGLQQIPGLLPAHGESGDALRKPRLQKPITGHLDDLFFTLYPSLEKFEEELLELHVQDHFQEGCGPLDGGALEILERRLRVGVHNGLGFVQRPQVVVLVPEMDVALTRSASFSRKVVSSSKTSSGSQALVLRSRLRLPEMVGHPAFAVIFQLEYVFSSPAGVDGNAASVTSLSNLACMHMVRWAVWNPLLEADSGRVTLPLQGGIQPNPSHCLVYKVPSASMSSEEVKQVESGTLRFQFSLGSEEHLDAPTEPVSGPKVERRPSRKPPTSPSSPPAPVPRVLAAPQNSPVGPGLSISQLAASPRSPTQHCLARPTSQLPHGSQASPAQAQEFPLEAGISHLEADLSQTSLVLETSIAEQLQELPFTPLHAPIVVGTQTRSSAGQPSRASMVLLQSSGFPEILDANKQPAEAVSATEPVTFNPQKEESDCLQSNEMVLQFLAFSRVAQDCRGTSWPKTVYFTFQFYRFPPATTPRLQLVQLDEAGQPSSGALTHILVPVSRDGTFDAGSPGFQLRYMVGPGFLKPGERRCFARYLAVQTLQIDVWDGDSLLLIGSAAVQMKHLLRQGRPAVQASHELEVVATEYEQDNMVVSGDMLGFGRVKPIGVHSVVKGRLHLTLANVGHPCEQKVRGCSTLPPSRSRVISNDGASRFSGGSLLTTGSSRRKHVVQAQKLADVDSELAAMLLTHARQGKGPQDVSRESDATRRRKLERMRSVRLQEAGGDLGRRGTSVLAQQSVRTQHLRDLQVIAAYRERTKAESIASLLSLAITTEHTLHATLGVAEFFEFVLKNPHNTQHTVTVEIDNPELSVIVDSQEWRDFKGAAGLHTPVEEDMFHLRGSLAPQLYLRPHETAHVPFKFQSFSAGQLAMVQASPGLSNEKGMDAVSPWKSSAVPTKHAKVLFRASGGKPIAVLCLTVELQPHVVDQVFRFYHPELSFLKKAIRLPPWHTFPGAPVGMLGEDPPVHVRCSDPNVICETQNVGPGEPRDIFLKVASGPSPEIKDFFVIIYSDRWLATPTQTWQVYLHSLQRVDVSCVAGQLTRLSLVLRGTQTVRKVRAFTSHPQELKTDPKGVFVLPPRGVQDLHVGVRPLRAGSRFVHLNLVDVDCHQLVASWLVCLCCRQPLISKAFEIMLAAGEGKGVNKRITYTNPYPSRRTFHLHSDHPELLRFREDSFQVGGGETYTIGLQFAPSQRVGEEEILIYINDHEDKNEEAFCVKVIYQ
In the case of B1, the binding is reported as “binds”.
